A number of entries come with more than one value. This is not the full list of results. The source may hold further records. Results that share an entry do not match, cause unknown; some may be repeats, others may stem from another dose, organism or construct than stated.
Legend:
[1] = tested on: human plasma; assay: Plasma protein binding via rapid equilibrium dialysis (RED), 10% plasma; format: in vitro ADME; conditions: 10% plasma corrected for dilution, presaturation of device and 24 h dialysis
[2] = basic pKa (B); cited from earlier work
[3] = tested on: Caco-2 cell monolayers; assay: Bidirectional permeability across Caco-2 cell monolayers; conditions: matrix: pH 7.4 buffer

Q: With `CC(C)(C)NCc1cc(C(C)(C)C)cc(-c2cnc(C(F)(F)F)c(F)c2)c1O` [JPC3210] as the compound, how does the Fraction unbound, human plasma [1] read?
A: 0.002 and 0.0028 ± 0.0002

Q: Which Measured pKa [2] does the source give for `O=C(NCCN1CCCC1)c1cc(-c2ccc(CN3CCOCC3)cc2)nc2ccc(F)cc12` [M5717] here?
A: 8.7 and 6.8

Q: Which “A–B Papp” value [3] does the source give for `CCc1nc(N)nc(N)c1OCCCOc1ccccc1CCC(=O)O.Cl` [P218] here?
A: < 5 10^−6 cm/s and 0.71 ± 0.04 10^−6 cm/s

From PMC6941357, “An in vitro toolbox to accelerate anti-malarial drug discovery and development” (Malaria Journal, 2020)
